Consider five molecules from article PMC9098461.

Amino acid sequences for entries named in this document (tags omitted).
UniProt P35579: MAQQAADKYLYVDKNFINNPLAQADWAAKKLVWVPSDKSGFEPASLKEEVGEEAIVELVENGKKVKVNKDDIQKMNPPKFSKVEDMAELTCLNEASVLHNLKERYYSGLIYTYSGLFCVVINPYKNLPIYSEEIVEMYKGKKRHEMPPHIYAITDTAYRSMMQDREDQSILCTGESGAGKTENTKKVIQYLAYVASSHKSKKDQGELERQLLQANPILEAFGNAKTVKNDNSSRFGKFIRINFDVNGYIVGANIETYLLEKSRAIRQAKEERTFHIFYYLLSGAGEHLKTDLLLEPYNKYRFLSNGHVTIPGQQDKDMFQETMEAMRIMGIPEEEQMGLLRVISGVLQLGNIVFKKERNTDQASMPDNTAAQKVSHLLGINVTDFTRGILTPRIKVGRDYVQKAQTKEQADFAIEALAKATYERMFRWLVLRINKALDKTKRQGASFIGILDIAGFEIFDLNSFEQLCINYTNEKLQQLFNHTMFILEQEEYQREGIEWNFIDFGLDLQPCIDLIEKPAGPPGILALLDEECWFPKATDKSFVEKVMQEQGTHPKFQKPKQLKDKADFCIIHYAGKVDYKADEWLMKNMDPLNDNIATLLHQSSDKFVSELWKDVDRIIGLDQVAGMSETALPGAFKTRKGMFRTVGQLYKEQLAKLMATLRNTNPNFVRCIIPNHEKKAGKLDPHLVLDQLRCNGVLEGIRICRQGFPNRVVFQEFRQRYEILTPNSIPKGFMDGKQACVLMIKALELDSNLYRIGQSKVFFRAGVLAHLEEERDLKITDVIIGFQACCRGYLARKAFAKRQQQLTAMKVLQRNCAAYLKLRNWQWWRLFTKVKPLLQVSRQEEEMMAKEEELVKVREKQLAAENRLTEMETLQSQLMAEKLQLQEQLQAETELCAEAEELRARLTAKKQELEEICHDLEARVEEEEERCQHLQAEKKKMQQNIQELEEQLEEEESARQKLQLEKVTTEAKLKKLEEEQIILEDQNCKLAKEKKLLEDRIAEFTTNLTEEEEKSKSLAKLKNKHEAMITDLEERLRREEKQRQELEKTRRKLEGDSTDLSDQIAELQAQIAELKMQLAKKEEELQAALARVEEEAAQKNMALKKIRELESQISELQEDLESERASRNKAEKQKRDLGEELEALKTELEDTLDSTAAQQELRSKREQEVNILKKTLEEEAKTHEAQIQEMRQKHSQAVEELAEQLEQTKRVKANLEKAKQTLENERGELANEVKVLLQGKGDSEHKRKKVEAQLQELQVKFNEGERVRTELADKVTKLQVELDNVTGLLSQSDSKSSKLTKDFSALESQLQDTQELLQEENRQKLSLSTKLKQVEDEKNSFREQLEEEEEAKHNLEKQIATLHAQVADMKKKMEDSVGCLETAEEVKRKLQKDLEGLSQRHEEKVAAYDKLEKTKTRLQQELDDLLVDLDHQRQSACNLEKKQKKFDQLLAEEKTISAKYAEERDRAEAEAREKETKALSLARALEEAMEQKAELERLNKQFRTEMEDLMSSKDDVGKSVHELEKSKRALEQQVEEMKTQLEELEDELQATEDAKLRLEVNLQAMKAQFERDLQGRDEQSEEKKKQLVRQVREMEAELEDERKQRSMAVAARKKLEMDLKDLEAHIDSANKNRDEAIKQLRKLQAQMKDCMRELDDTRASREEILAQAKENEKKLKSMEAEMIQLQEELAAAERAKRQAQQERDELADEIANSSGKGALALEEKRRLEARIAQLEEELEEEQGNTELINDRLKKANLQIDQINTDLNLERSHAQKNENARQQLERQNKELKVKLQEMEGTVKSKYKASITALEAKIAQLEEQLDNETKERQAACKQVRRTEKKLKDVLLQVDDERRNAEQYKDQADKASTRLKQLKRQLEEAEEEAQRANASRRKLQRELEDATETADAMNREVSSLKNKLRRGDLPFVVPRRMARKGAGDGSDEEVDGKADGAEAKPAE
UniProt P14735: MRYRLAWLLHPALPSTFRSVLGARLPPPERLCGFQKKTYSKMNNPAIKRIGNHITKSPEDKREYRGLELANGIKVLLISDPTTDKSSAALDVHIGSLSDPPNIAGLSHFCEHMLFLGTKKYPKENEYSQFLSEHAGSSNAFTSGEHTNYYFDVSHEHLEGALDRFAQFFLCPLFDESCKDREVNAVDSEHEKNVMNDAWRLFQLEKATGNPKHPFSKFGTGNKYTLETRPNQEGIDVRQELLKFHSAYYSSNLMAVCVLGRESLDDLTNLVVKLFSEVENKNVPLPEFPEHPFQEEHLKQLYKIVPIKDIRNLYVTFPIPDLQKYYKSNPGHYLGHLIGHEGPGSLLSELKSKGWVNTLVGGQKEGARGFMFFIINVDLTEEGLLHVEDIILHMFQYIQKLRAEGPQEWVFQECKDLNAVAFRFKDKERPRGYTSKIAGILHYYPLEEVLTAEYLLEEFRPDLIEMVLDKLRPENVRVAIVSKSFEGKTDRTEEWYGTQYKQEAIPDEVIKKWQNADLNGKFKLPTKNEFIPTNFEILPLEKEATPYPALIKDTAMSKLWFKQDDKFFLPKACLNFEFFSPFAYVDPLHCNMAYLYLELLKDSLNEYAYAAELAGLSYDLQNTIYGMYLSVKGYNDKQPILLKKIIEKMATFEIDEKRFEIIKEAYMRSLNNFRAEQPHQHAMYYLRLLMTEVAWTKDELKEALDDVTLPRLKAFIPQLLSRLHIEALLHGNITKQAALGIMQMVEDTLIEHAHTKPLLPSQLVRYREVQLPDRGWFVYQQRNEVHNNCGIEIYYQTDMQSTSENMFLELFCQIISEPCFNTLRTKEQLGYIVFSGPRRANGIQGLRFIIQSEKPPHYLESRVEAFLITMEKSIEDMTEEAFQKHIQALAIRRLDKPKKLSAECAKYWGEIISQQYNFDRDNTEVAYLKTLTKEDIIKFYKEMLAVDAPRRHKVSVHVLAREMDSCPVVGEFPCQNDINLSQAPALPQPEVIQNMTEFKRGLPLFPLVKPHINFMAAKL

Read-outs that look alike come from different tables or passages of the source. Results are given in words; binding and its absence hold for the method and conditions named. Binding seen in cells or lysates may run through a third protein. A yes stands for co-enrichment or nearness to the bait. Other partners may have been found. Sequences can lack the tags named with a protein.

Test [1] has as its target T1, His-p47-FLAG (UniProt O35987).
T1 sequence: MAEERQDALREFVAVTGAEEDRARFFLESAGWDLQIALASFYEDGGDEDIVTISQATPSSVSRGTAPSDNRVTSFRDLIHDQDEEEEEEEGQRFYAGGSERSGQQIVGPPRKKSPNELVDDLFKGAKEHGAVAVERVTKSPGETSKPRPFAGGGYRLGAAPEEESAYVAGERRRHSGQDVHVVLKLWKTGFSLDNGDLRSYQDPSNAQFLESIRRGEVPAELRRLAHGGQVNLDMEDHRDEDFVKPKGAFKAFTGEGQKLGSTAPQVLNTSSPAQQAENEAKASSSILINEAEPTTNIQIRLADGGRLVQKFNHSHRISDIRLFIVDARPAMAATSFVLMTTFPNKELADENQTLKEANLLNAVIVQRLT
Description: affinity purification with mass spectrometry; eluates of the p47 co-IP with ADP-BeFx against mock co-IPs without His-p47-FLAG (n = 3); label-free quantitation, SAINT; only the target purified.

Test [2] addresses T1, His-p47-FLAG. The test is described as above. This is another data set of the same source.

On to myosin-9 (from UniProt P35579 1-1960), for which the binding result in test [1] is listed as “binds”.

With “insulin-degrading enzyme (from UniProt P14735 1-1019)”, the binding result in test [1] was “binds”.

B1: UBXN7 (protein, UniProt O94888 1-489)
chain: MAAHGGSAASSALKGLIQQFTTITGASESVGKHMLEACNNNLEMAVTMFLDGGGIAEEPSTSSASVSTVRPHTEEEVRAPIPQKQEILVEPEPLFGAPKRRRPARSIFDGFRDFQTETIRQEQELRNGGAIDKKLTTLADLFRPPIDLMHKGSFETAKECGQMQNKWLMINIQNVQDFACQCLNRDVWSNEAVKNIIREHFIFWQVYHDSEEGQRYIQFYKLGDFPYVSILDPRTGQKLVEWHQLDVSSFLDQVTGFLGEHGQLDGLSSSPPKKCARSESLIDASEDSQLEAAIRASLQETHFDSTQTKQDSRSDEESESELFSGSEEFISVCGSDEEEEVENLAKSRKSPHKDLGHRKEENRRPLTEPPVRTDPGTATNHQGLPAVDSEILEMPPEKADGVVEGIDVNGPKAQLMLRYPDGKREQITLPEQAKLLALVKHVQSKGYPNERFELLTNFPRRKLSHLDYDITLQEAGLCPQETVFVQERN
B1: the binding result in test [2] is “binds”.

B2: UBXN1 (protein, UniProt Q04323 1-297)
chain: MAELTALESLIEMGFPRGRAEKALALTGNQGIEAAMDWLMEHEDDPDVDEPLETPLGHILGREPTSSEQGGLEGSGSAAGEGKPALSEEERQEQTKRMLELVAQKQREREEREEREALERERQRRRQGQELSAARQRLQEDEMRRAAEERRREKAEELAARQRVREKIERDKAERAKKYGGSVGSQPPPVAPEPGPVPSSPSQEPPTKREYDQCRIQVRLPDGTSLTQTFRAREQLAAVRLYVELHRGEELGGGQDPVQLLSGFPRRAFSEADMERPLQELGLVPSAVLIVAKKCPS
As to B2, the binding result in test [2] is given as “binds”.

B3: ornithine aminotransferase (protein, UniProt P04181 26-439)
chain: TSVATKKTVQGPPTSDDIFEREYKYGAHNYHPLPVALERGKGIYLWDVEGRKYFDFLSSYSAVNQGHCHPKIVNALKSQVDKLTLTSRAFYNNVLGEYEEYITKLFNYHKVLPMNTGVEAGETACKLARKWGYTVKGIQKYKAKIVFAAGNFWGRTLSAISSSTDPTSYDGFGPFMPGFDIIPYNDLPALERALQDPNVAAFMVEPIQGEAGVVVPDPGYLMGVRELCTRHQVLFIADEIQTGLARTGRWLAVDYENVRPDIVLLGKALSGGLYPVSAVLCDDDIMLTIKPGEHGSTYGGNPLGCRVAIAALEVLEEENLAENADKLGIILRNELMKLPSDVVTAVRGKGLLNAIVIKETKDWDAWKVCLRLRDNGLLAKPTHGDIIRFAPPLVIKEDELRESIEIINKTILSF
Turning to B3, the binding entry in test [2] was “binds”.
